Among all 410,000 compounds or so, about 310 (0.076%) were called active. Inconclusive results, whose numbers are uncertain, are shown with a selection of clear calls. Calls come from the whole dose curve; as a rule, active = well fitted activation curve with a large enough effect; inconclusive = small, poorly fitted or top-dose-only effect, or another doubt; inactive = no such curve, though single readings can be large or run the other way. A potency beside an inconclusive call is a rough fit, not a confirmed value.
Biological target: Parathyroid hormone/parathyroid hormone-related peptide receptor (Homo sapiens) (UniProt Q03431)
Test: qHTS for PTHR1 Agonists: Primary Screen; note: nearly all actives have a fitted effect of over 55% in size
Details: HEK293 GP2 PTHR1 cells, GloSensor cAMP luminescence, 1 h; activation: at 115 µM (top of the series) unless noted; series mostly up to 115 µM
In short: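 HEK-293-derived GP2 cells expressing PTHR1 and a GloSensor cAMP reporter, 3,000/well, plated overnight, given luciferin plus IBMX (each 0.5 mM as added) for 1 h at 37 °C, then compound for 1 h at 37 °C. Luminescence was read after 15 min at room temperature.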
Potency is the fitted concentration of half-maximal effect.

By UniProt entry, the sequences of proteins in these tests, tags left out.
UniProt Q03431, whole entry, looked up: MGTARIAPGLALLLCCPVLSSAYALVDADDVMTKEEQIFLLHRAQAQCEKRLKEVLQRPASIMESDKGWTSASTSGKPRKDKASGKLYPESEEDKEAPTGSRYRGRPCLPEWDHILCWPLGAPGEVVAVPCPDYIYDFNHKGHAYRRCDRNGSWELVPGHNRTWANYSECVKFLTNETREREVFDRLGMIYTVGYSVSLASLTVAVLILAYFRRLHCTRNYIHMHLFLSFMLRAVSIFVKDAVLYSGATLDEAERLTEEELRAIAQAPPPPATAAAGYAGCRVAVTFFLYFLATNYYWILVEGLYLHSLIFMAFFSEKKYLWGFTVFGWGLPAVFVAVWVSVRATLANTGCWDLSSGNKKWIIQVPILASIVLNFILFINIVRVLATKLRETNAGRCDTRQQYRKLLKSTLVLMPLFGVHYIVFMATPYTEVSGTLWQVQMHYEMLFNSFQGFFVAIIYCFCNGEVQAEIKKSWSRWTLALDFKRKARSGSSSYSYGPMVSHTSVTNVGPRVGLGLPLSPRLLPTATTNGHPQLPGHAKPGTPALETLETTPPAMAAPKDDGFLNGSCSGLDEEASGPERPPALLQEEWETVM

Potency, inactive:
CC1CCN(C(=O)c2cc3c(ccc4ccccc43)o2)CC1
CCCN1Cc2cccc(C(=O)Nc3ccc(CN4CCCC4)cc3)c2C1=O
CCC1(c2ccc(F)cc2)NC(=O)N(CC(=O)N2CCN(S(=O)(=O)c3ccc(Cl)cc3)CC2)C1=O (stereo not drawn)
CCOc1ccc(NC(=O)C2CCCN(c3nn4cc(-c5ccc(OC)cc5)nc4s3)C2)cc1 (stereo not drawn)
O=C(CCNC(=O)C1CCN(S(=O)(=O)c2ccc(F)cc2)CC1)NCc1ccccn1
CN1CCN(C(=O)c2ccc(CSc3ccc(Cl)cc3)cc2)CC1
COc1ccc(CNc2nc3c(-c4ccc(C)cc4)nnn3c3ccccc23)cc1
CC(=O)Nc1ccc(SC[C@H](Cc2ccccc2)N2CC[C@@H](C(C)(C)C)CCC2=O)cc1
COc1ccccc1CNC(=O)CCn1c(=O)c2ccccc2n(CC(=O)Nc2ccc(C)cc2C)c1=O
CCOc1cc(/C=C2/C(=O)ON=C2C)ccc1OCc1ccccc1F
CCOC(=O)c1c(C)sc2c1N(C(=O)CCl)c1cc(Cl)ccc1S2
CCN(CC(=O)Nc1ccc(NC(C)=O)cc1)C(=O)c1ccc(Sc2nncn2C)c([N+](=O)[O-])c1

Three structures out of the list, sorted by molar mass, smallest number first.
Potency, inactive:
CCCN1Cc2cccc(C(=O)Nc3ccc(CN4CCCC4)cc3)c2C1=O
CCOC(=O)c1c(C)sc2c1N(C(=O)CCl)c1cc(Cl)ccc1S2
COc1ccccc1CNC(=O)CCn1c(=O)c2ccccc2n(CC(=O)Nc2ccc(C)cc2C)c1=O

Following part:

Potency, inconclusive:
NC(=O)c1nsc(C(=O)N(c2ccccc2)C(C(=O)NC2CCCC2)c2ccncc2)c1N (stereo not drawn) 126 µM [activator, single point]
c1cncc(CNc2nc(N3CCOCC3)nc(N3CCOCC3)n2)c1 39.8 µM [activator, single point]
CCOCCCNC(=O)c1[nH]c(C)c(C(C)=O)c1C 15.8 µM [activator, partial curve]
Cc1ccc(N(C(C)C(=O)N2CCOCC2)S(C)(=O)=O)cc1C (stereo not drawn) 39.8 µM [activator, single point]
COc1cccc(C(C(=O)NC2CCCC2)N(Cc2ccco2)C(=O)c2ccco2)c1OC (stereo not drawn) 1.58 µM [activator, full curve, poor fit]
Cc1nn(C(=O)c2ccccc2)c(C)c1S(=O)(=O)N1CCOCC1 15.8 µM [activator, partial curve]
COC(=O)CCN(C)CCC(=O)OC 31.6 µM [activator, partial curve, poor fit]
COC(=O)CCC(=O)NNC(=O)CCCOc1ccc(Cl)cc1Cl 44.7 µM [activator, single point]
O=[N+]([O-])c1ccc(Cl)cc1N1CCCCC1 126 µM [activator, single point]
C(=N\c1nc2ccccc2n1CCN1CCCCC1)/c1ccc2c(c1)OCO2 8.91 µM [activator, partial curve, poor fit]
COc1ccc(-c2[nH]ncc2CN2CCN(Cc3cccs3)CC2)cc1F 126 µM [activator, single point]
COc1ccc(-c2nnc(SCC(=O)Oc3c(C)cccc3C)o2)cc1OC 158 µM [activator, single point]
CC(NC(=O)COC(=O)c1ccc2c(c1)S(=O)(=O)N=C1CCCCCN12)C12CC3CC(CC(C3)C1)C2 (stereo not drawn) 56.2 µM [activator, single point]
COc1ccc(-c2nc(C(=O)Nc3cccc(C(C)=O)c3)nn2-c2ccc(Cl)cc2)cc1 112 µM [activator, single point]
CCN(CCCNC(=O)CN1C(=O)COc2ccc(S(=O)(=O)N3CCC(C)CC3)cc21)Cc1ccccc1 5.62 µM [activator, full curve, poor fit]
CCN(C(=O)CSc1ncc(S(=O)(=O)c2ccc(C)c(Cl)c2)c(=O)[nH]1)c1cccc(C)c1 31.6 µM [activator, single point]
CNC(=O)c1ncnnc1N(C)C(=O)NCc1ccccc1 5.62 µM [activator, full curve, poor fit]
COc1ccccc1Nc1nn2c(=O)c3ccc(C(=O)NCc4cccs4)cc3nc2s1 50.1 µM [activator, partial curve, poor fit]
Cc1c(C(=O)O)oc2ccc(S(=O)(=O)N(CC(C)C)CC(C)C)cc12 70.8 µM [activator, single point]
COc1ccc(CCNC(=O)c2cccc(S(=O)(=O)N3CCCC3)c2)cc1OC 79.4 µM [activator, partial curve, poor fit]
CC(=O)Nc1ccc(NC(=O)c2ccccc2N(C)S(=O)(=O)c2ccc(C)cc2)cc1 70.8 µM [activator, partial curve, poor fit]

activation, inconclusive:
O=C1CCC([N+](=O)[O-])C(c2ccc3c(c2)OCO3)N1 (stereo not drawn) 118% [activator]
COc1ccccc1-n1cc(-c2ccc([N+](=O)[O-])cc2)[nH]c1=S -39.3% [activator]
CCOc1ccccc1CNS(=O)(=O)c1ccc2c(c1)C(C)(C)C(=O)N2C -24.1% [activator]
Cc1cc(C(C)(C)C)cc(CN2CCN(S(=O)(=O)c3cccs3)CC2)c1O -42.3% [activator]
CCCCN(Cc1ccccc1)C(=O)c1oc(=O)c2ccccc2c1-c1ccc(C)cc1 -34.7% [activator]
COCC(=O)Nc1cc([N+](=O)[O-])ccc1C 30.9% [activator]
CCC(C)NC(=O)c1ccc(-n2c(-c3ccccc3)cc3c2CCCC3)cc1 (stereo not drawn) 42.8% [activator]
COc1cccc(CNC(=O)CCC2CCCN(C(=O)CCn3cncn3)C2)c1 (stereo not drawn) -66.4% [activator]
O=C(O)CSc1nnc(Cc2ccccc2)n1-c1ccccc1 -31.1% [activator]
COCCN1C(=O)c2[nH]nc(-c3ccccc3O)c2C1c1ccc(OCc2ccccc2)c(OC)c1 (stereo not drawn) -89.3% [activator]

— PubChem BioAssay AID743266 (National Center for Advancing Translational Sciences (NCATS), 2014)
